The list shows only some results of the screen, not a fair sample: it is rich in T/C values a quarter to a half above the control, in often repeated tests (any T/C) and in doses without a T/C. Other doses and runs of a compound stand elsewhere. T/C gives the treated animals as a percentage of the vehicle group. Some doses have a count of surviving animals in place of a T/C: the source files T/C as zero there, which appears to mark a toxic dose or a test without result, not a measured value. Some survivor counts are full or nearly so, which does not show that the dose was tolerated: the source hardly ever lists a survival T/C far under the control, and the zero likely stands for such cases as well. Survivors were counted at the toxicity check, usually on the fifth day, unless a day is given; later deaths do not show. Schedule codes are those of the source, read here as Q, the interval in days (D) or hours (H), X, the number of doses. Additions like (4×) count equal records among those shown. Some entries hold several experiments; the values are given in rising order. For survival time, the PubChem record calls one and a half times the control and up active, and a quarter to a half above the control has no call in these data; cut-offs in other NCI protocols can differ. Some T/C values are followed by the survivors on the day toxicity was checked, most often the fifth; without a count, all were alive then.
Test system: AKR/Lw mice, AKR lymphoma ip, median survival T/C
Assay: NCI In Vivo Anticancer Drug Screen. Data for tumor model Lymphoma AKR (Transplanted) (intraperitoneal) in AKR/Lw mice
Settings: T/C endpoint: median survival time, higher T/C = longer survival
Method: The antitumor activity of compounds was measured in mice bearing transplantable tumors. Survival or tumor size were measured and the results are expressed as the measurement made in the treated group (T) divided by the measurement made in the vehicle treated control group (C). The tumor model used in this assay is Lymphoma AKR (Transplanted) (intraperitoneal) in AKR/Lw mice

[1] = dose: 40.0 mg/kg/injection, schedule: Q01DX009 (ip), vehicle: saline
[2] = dose: 100.0 mg/kg/injection, schedule: Q04DX003 (ip), vehicle: saline
[3] = dose: 200.0 mg/kg/injection, schedule: Q01DX001 (ip), vehicle: saline
[4] = dose: 200.0 mg/kg/injection, schedule: Q04DX003 (ip), vehicle: saline

## O=c1[nH]cc(F)c(=O)[nH]1
dose: 2.5 mg/kg/injection, schedule: Q03HX032 (ip), vehicle: saline
  T/C: 149 % of control
dose: 3.75 mg/kg/injection, schedule: Q01DX009 (ip), vehicle: saline
  survivor count: 8 of 10
dose: 5.0 mg/kg/injection, schedule: Q01DX005 (ip), vehicle: saline
  T/C: 138 % of control
dose: 5.0 mg/kg/injection, schedule: Q01DX015 (ip), vehicle: saline
  T/C: 144 % of control
dose: 5.0 mg/kg/injection, schedule: Q03HX024 (ip), vehicle: saline
  T/C: 147 % of control
dose: 10.0 mg/kg/injection, schedule: Q01DX001 (ip), vehicle: saline
  T/C: 142 % of control
dose: 10.0 mg/kg/injection, schedule: Q01DX005 (ip), vehicle: saline
  T/C: 132 % of control
dose: 10.0 mg/kg/injection, schedule: Q01DX009 (ip), vehicle: saline
  T/C: 100, 105, 111, 111 [7 of 10 alive], 127, 136 % of control [9 of 10 alive]
dose: 10.0 mg/kg/injection, schedule: Q01DX015 (ip), vehicle: saline
  T/C: 129 [9 of 10 alive] and 136 % of control
dose: 10.0 mg/kg/injection, schedule: Q03HX024 (ip), vehicle: saline
  T/C: 135 % of control
dose: 10.0 mg/kg/injection, schedule: Q04DX004 (ip), vehicle: saline
  T/C: 125 % of control
dose: 12.5 mg/kg/injection, schedule: Q01DX001 (ip), vehicle: saline
  T/C: 128 % of control
dose: 12.5 mg/kg/injection, schedule: Q04DX003 (ip), vehicle: saline, evaluated on day 30
  T/C: 118 % of control
dose: 12.5 mg/kg/injection, schedule: Q04DX003 (ip), vehicle: saline, evaluated on day 45
  T/C: 103, 105, 107, 113 % of control
dose: 12.5 mg/kg/injection, schedule: Q04DX003 (ip), vehicle: saline, evaluated on day 60
  T/C: 111 and 158 % of control
dose: 12.5 mg/kg/injection, schedule: Q04DX003 (ip), vehicle: saline
  survivor count: 4 of 10
dose: 18.0 mg/kg/injection, schedule: Q04DX003 (ip), vehicle: saline
  T/C: 125 % of control
dose: 20.0 mg/kg/injection, schedule: Q01DX009 (ip), vehicle: saline, evaluated on day 45
  T/C: 132 % of control
dose: 20.0 mg/kg/injection, schedule: Q01DX009 (ip), vehicle: saline, evaluated on day 60
  T/C: 113, 125, 133 [8 of 10 alive], 136 [9 of 10 alive], 147 % of control (2×)
dose: 20.0 mg/kg/injection, schedule: Q01DX015 (ip), vehicle: saline
  T/C: 125 % of control
dose: 20.0 mg/kg/injection, schedule: Q04DX003 (ip), vehicle: saline, evaluated on day 5
  T/C: 125 % of control
dose: 20.0 mg/kg/injection, schedule: Q04DX003 (ip), vehicle: saline, evaluated on day 60
  T/C: 125 % of control
dose: 20.0 mg/kg/injection, schedule: Q04DX004 (ip), vehicle: saline
  T/C: 134 % of control
dose: 25.0 mg/kg/injection, schedule: Q01DX001 (ip), vehicle: saline
  T/C: 142 % of control [9 of 10 alive]
dose: 25.0 mg/kg/injection, schedule: Q02DX005 (ip), vehicle: Klucel (hydroxypropylcellulose) (HPC)
  T/C: 139 % of control
dose: 25.0 mg/kg/injection, schedule: Q04DX003 (ip), vehicle: saline, evaluated on day 30
  T/C: 143 and 176 % of control [9 of 10 alive]
dose: 25.0 mg/kg/injection, schedule: Q04DX003 (ip), vehicle: saline, evaluated on day 45
  T/C: 114, 123, 127, 150 % of control
dose: 25.0 mg/kg/injection, schedule: Q04DX003 (ip), vehicle: saline, evaluated on day 60
  T/C: 119 (2×), 121, 134 [9 of 10 alive], 135 [7 of 10 alive], 146, 147 [9 of 10 alive], 175 % of control
dose: 30.0 mg/kg/injection, schedule: Q01DX009 (ip), vehicle: saline
  survivor count: 10 of 10
dose: 30.0 mg/kg/injection, schedule: Q01DX015 (ip), vehicle: saline
  survivor count: 10 of 10
dose: 37.5 mg/kg/injection, schedule: Q01DX001 (ip), vehicle: saline, evaluated on day 5
  T/C: 125 % of control
dose: 37.5 mg/kg/injection, schedule: Q01DX001 (ip), vehicle: saline, evaluated on day 60
  T/C: 129 % of control
dose: 37.5 mg/kg/injection, schedule: Q04DX003 (ip), vehicle: saline
  T/C: 135 % of control
dose: 40.0 mg/kg/injection, schedule: Q01DX001 (ip), vehicle: saline
  survivor count: 10 of 10
dose: 40.0 mg/kg/injection, schedule: Q01DX005 (ip), vehicle: saline
  survivor count: 10 of 10
[1]
  T/C: 92 % of control
  survivor count: 7 of 10, 8 of 10, 9 of 10, 10 of 10
dose: 40.0 mg/kg/injection, schedule: Q01DX015 (ip), vehicle: saline
  survivor count: 9 of 10
dose: 48.0 mg/kg/injection, schedule: Q04DX003 (ip), vehicle: water
  survivor count: 10 of 10
dose: 50.0 mg/kg/injection, schedule: Q01DX001 (ip), vehicle: saline
  T/C: 121, 121 [8 of 10 alive], 130, 145 % of control
dose: 50.0 mg/kg/injection, schedule: Q02DX005 (ip), vehicle: Klucel (hydroxypropylcellulose) (HPC)
  survivor count: 6 of 6
dose: 50.0 mg/kg/injection, schedule: Q04DX003 (ip), vehicle: saline, evaluated on day 30
  T/C: 165 % of control
dose: 50.0 mg/kg/injection, schedule: Q04DX003 (ip), vehicle: saline, evaluated on day 45
  T/C: 163, 171, 177, 197 % of control
dose: 50.0 mg/kg/injection, schedule: Q04DX003 (ip), vehicle: saline, evaluated on day 60
  T/C: 133, 141 [7 of 10 alive], 141 [9 of 10 alive], 200, 204 % of control
dose: 50.0 mg/kg/injection, schedule: Q04DX003 (ip), vehicle: saline
  survivor count: 5 of 10 and 10 of 10
dose: 60.0 mg/kg/injection, schedule: Q01DX001 (ip), vehicle: saline
  T/C: 133 % of control
dose: 75.0 mg/kg/injection, schedule: Q01DX001 (ip), vehicle: saline
  T/C: 145 % of control
dose: 75.0 mg/kg/injection, schedule: Q04DX003 (ip), vehicle: saline
  T/C: 145 % of control
dose: 75.0 mg/kg/injection, schedule: Q04DX004 (ip), vehicle: saline
  survivor count: 10 of 10
dose: 80.0 mg/kg/injection, schedule: Q01DX005 (ip), vehicle: saline
  survivor count: 9 of 10
dose: 80.0 mg/kg/injection, schedule: Q01DX015 (ip), vehicle: saline
  survivor count: 9 of 10
dose: 90.0 mg/kg/injection, schedule: Q04DX008 (ip), vehicle: saline
  survivor count: 10 of 10
dose: 100.0 mg/kg/injection, schedule: Q01DX001 (ip), vehicle: saline
  T/C: 114, 134, 138, 150, 164, 168 % of control
dose: 100.0 mg/kg/injection, schedule: Q02DX005 (ip), vehicle: Klucel (hydroxypropylcellulose) (HPC)
  survivor count: 6 of 6
[2]
  T/C: 87, 100 [9 of 10 alive], 111, 165 % of control
  survivor count: 10 of 10 (2×)
dose: 100.0 mg/kg/injection, schedule: Q04DX004 (ip), vehicle: saline
  survivor count: 9 of 10
dose: 150.0 mg/kg/injection, schedule: Q01DX001 (ip), vehicle: saline, evaluated on day 5
  T/C: 105 % of control
dose: 150.0 mg/kg/injection, schedule: Q01DX001 (ip), vehicle: saline, evaluated on day 60
  T/C: 141 [9 of 10 alive], 159, 171, 231 % of control
dose: 150.0 mg/kg/injection, schedule: Q01DX001 (ip), vehicle: saline
  survivor count: 10 of 10
dose: 150.0 mg/kg/injection, schedule: Q04DX003 (ip), vehicle: saline
  survivor count: 9 of 10
[3]
  T/C: 92 and 156 % of control
  survivor count: 10 of 10
dose: 200.0 mg/kg/injection, schedule: Q02DX005 (ip), vehicle: Klucel (hydroxypropylcellulose) (HPC)
  survivor count: 6 of 6
[4]
  T/C: 91 % of control
  survivor count: 10 of 10
dose: 300.0 mg/kg/injection, schedule: Q01DX001 (ip), vehicle: saline
  survivor count: 9 of 10
dose: 400.0 mg/kg/injection, schedule: Q01DX001 (ip), vehicle: saline
  survivor count: 10 of 10
dose: 400.0 mg/kg/injection, schedule: Q04DX003 (ip), vehicle: saline
  survivor count: 10 of 10

Reference: PubChem BioAssay AID190 (DTP/NCI, 2004)
